# This is one part of the list. Shown are side measurements of this screen, not its main read-out; they come without a call. Most of these compounds were active or inconclusive in the main read-out, so they are no random draw. Words in brackets tell the shape of the fitted curve; partial curves, single points and poor fits give uncertain potencies.
# Test: qHTS Assay for Lipid Storage Modulators in Drosophila S3 Cells;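 for cell number change: cells counted by Cell Tracker Red CMTPX staining in the red channel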
# Conditions: BODIPY lipid droplet fluorescence, 18-24 h; for cell number change: measured here: cell count max response, cells fed with added oleic acid
# How it was run: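 Laser-scanning cytometry quantifies lipid droplet accumulation (500–530 nm total intensity; droplet/cell object ratio) in oleic acid-fed (400 uM added) Drosophila S3 cells treated with a concentration series. 20 uM Triacsin C defined 100% inhibition.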
# [1] = measured here: cell number channel AC50, cells fed with added oleic acid
# [2] = measured here: lipid fluorescence (Fed channel) AC50, cells fed with added oleic acid
smiles,measurement,setting,value
O=C(CN1C(=O)C2CCc3[nH]c4ccccc4c3C2C1=O)N1CCCC1 (stereo not drawn),cell number change,,3.24%
same,AC50,[1],"0.00461 µM [falling, full curve, poor fit]"
same,AC50,[2],"4.11 µM [rising, single point]"
COc1ccc(NCC(=O)N/N=C/C(C)c2ccccc2)cc1 (stereo not drawn),AC50,[2],"6.51 µM [rising, single point]"
CN(Cc1ccccc1)S(=O)(=O)c1cccc2cccnc12,cell number change,,127%
same,AC50,[1],"8.2 µM [rising, partial curve]"
same,AC50,[2],"4.11 µM [rising, partial curve]"
Cc1cc(=O)oc(C)c1C(=O)OCC(=O)c1ccccc1,cell number change,,-18%
same,AC50,[2],"6.51 µM [rising, single point]"
COC(=O)CSc1nc(-c2ccccc2)c2c(c1C#N)CCCC2,cell number change,,41.1%
same,AC50,[1],"36.6 µM [rising, partial curve, poor fit]"
O=C(COC(=O)c1ccc2[nH]c3c(c2c1)CCCC3)Nc1ccc(Cl)cc1Cl,cell number change,,-3.08%
Cc1noc(C(=O)NCc2ccccc2)c1Cl,cell number change,,-19.8%
same,AC50,[2],"0.00517 µM [rising, full curve, poor fit]"
COc1cccc(-c2c(C#N)c(N)nc3c2c(C)nn3-c2ccccc2)c1O,AC50,[1],"6.51 µM [rising, single point]"
CC(=O)c1c(C(=O)O)[nH]c(C(=O)O)c1C,cell number change,,86.6%
same,AC50,[2],"16.4 µM [rising, single point]"
CC1CC=C(c2ccccc2)C(=S)N1 (stereo not drawn),cell number change,,-33.3%
same,AC50,[1],"9.2 µM [falling, partial curve]"
same,AC50,[2],"1.64 µM [falling, full curve]"
COc1cc(CNn2c(C)n[nH]c2=S)cc(Br)c1OCC(=O)NC(C)(C)C,cell number change,,-24%
same,AC50,[2],"29.1 µM [falling, single point]"
COc1ccc(C)cc1NC(=O)CN1CCN(S(=O)(=O)c2ccc3ccccc3c2)CC1,cell number change,,1.5%
same,AC50,[1],"1.64 µM [falling, partial curve, poor fit]"
same,AC50,[2],"1.64 µM [falling, partial curve, poor fit]"
COCCn1c(=S)[nH]c2sc3c(c2c1=O)CCC(C)C3 (stereo not drawn),cell number change,,-8.73%
Cc1ccc(S(=O)(=O)N(C)S(=O)(=O)c2ccc(C)cc2)cc1,cell number change,,8.38%
same,AC50,[2],"7.31 µM [rising, partial curve, poor fit]"
Cc1ccc(/C=N/n2cnnc2)s1,cell number change,,-33.3%
same,AC50,[1],"0.92 µM [falling, full curve]"
same,AC50,[2],"32.6 µM [falling, single point]"
COC(=O)c1ccc(C2C(C#N)=C(C)NC3=C2C(=O)CC(C)(C)C3)cc1 (stereo not drawn),cell number change,,-28.2%
same,AC50,[2],"0.0731 µM [falling, full curve, poor fit]"
COCCCn1c(=O)c2sccc2n2c(CCCC(=O)NCc3cccc(OC)c3)nnc12,cell number change,,8.02%
CCCn1c(N)c(N(CCOC)C(=O)c2cccc(F)c2)c(=O)[nH]c1=O,cell number change,,-17.1%
Cc1ccc(/C=C/C(=O)Nc2ccncc2)o1,cell number change,,3.5%
same,AC50,[2],"29.1 µM [rising, single point]"
O=C(NCc1ccccc1CN1CCCC1)c1ccc(Cl)c(S(=O)(=O)N2CCCC2)c1,cell number change,,-19.9%
COc1ccc(C2CC(c3ccc(Cl)cc3)n3nc(N)nc3N2)cc1 (stereo not drawn),cell number change,,9.11%
O=C(CSc1ncc(-c2ccccc2)[nH]1)Nc1ccccc1,cell number change,,7.37%
O=C(COC(=O)c1ccccc1Br)Nc1ccc(F)cc1,AC50,[1],"0.461 µM [rising, full curve]"
same,AC50,[2],"0.731 µM [rising, full curve]"
COc1ccc(S(=O)(=O)Nc2cc3[nH]c(=O)oc3cc2C)cc1,cell number change,,-4.6%
COc1ccc(OCCC(=O)N2CCN(C)CC2)cc1,cell number change,,9.33%
same,AC50,[2],"2.06 µM [rising, single point]"
O=[N+]([O-])c1ccccc1CNCCCCCO,cell number change,,22.3%
same,AC50,[2],"0.82 µM [rising, full curve, poor fit]"
CC(C)(C)c1ccc(C(=O)CCCSC2=C(C#N)C(c3ccco3)C3=C(CCCC3=O)N2)cc1 (stereo not drawn),cell number change,,-14.3%
same,AC50,[2],"0.164 µM [falling, partial curve, poor fit]"
O=C(NCCC1=CCCCC1)C1CCCN(S(=O)(=O)c2cccnc2)C1 (stereo not drawn),cell number change,,-9.09%
COCCCNC(=O)c1cn(Cc2c(F)cccc2Cl)nn1,cell number change,,-22.2%
same,AC50,[2],"0.184 µM [falling, full curve, poor fit]"
COc1ccc(-c2cc(C(F)F)n3ncc(C(=O)n4ccnc4C)c3n2)cc1,cell number change,,-32.5%
same,AC50,[1],"32.6 µM [falling, single point]"
Clc1ccc(OCc2nnc(-c3ccccc3Br)o2)cc1,cell number change,,0.0364%
same,AC50,[1],"7.31 µM [falling, partial curve]"
COc1ccc(C(=O)c2c(-c3ccc(OC)cc3)oc3ccccc23)cc1,cell number change,,-27.4%
same,AC50,[1],"0.82 µM [falling, full curve, poor fit]"
same,AC50,[2],"0.82 µM [falling, full curve, poor fit]"
O=C(N/N=C/c1ccc([N+](=O)[O-])cc1)c1cc(C2CC2)[nH]n1,cell number change,,34.6%
CC(=O)Nc1ccc(NC(=O)COC(=O)c2ccccc2C(=O)c2ccccc2)cc1,cell number change,,-15.8%
same,AC50,[2],"0.259 µM [rising, partial curve, poor fit]"
Nc1c(N(Cc2ccco2)C(=O)c2cccc(F)c2)c(=O)[nH]c(=O)n1Cc1ccccc1,cell number change,,-6.22%
same,AC50,[2],"3.26 µM [rising, full curve, poor fit]"
O=C(c1ccco1)N1CCCN(Cc2nc(-c3cccs3)no2)CC1,cell number change,,9.37%
same,AC50,[2],"1.3 µM [rising, full curve, poor fit]"
CCCCN(CC)C(=O)c1cccc(Cl)c1,cell number change,,7.47%
same,AC50,[2],"6.51 µM [falling, single point]"
CCOc1ccc2c(c1)C(=NNC(=O)c1ccncc1)c1cc(OCC)ccc1-2,cell number change,,-45.7%
same,AC50,[1],"18.4 µM [falling, partial curve]"
same,AC50,[2],"20.6 µM [falling, partial curve]"
COc1ccc(S(=O)(=O)CC(=O)Nc2ccccc2Cl)cc1,cell number change,,-12.6%
same,AC50,[2],"0.731 µM [falling, partial curve, poor fit]"
CCc1ccc(Nc2nnc(SCc3cc(=O)n4ccsc4n3)s2)cc1,cell number change,,66.2%
same,AC50,[1],"8.2 µM [rising, partial curve, poor fit]"
Oc1ccc(N=Nc2nccs2)c(O)c1,cell number change,,3.72%
same,AC50,[2],"29.1 µM [falling, single point]"
CNCc1c(OCc2ccccc2)ccc2ccccc12,cell number change,,10.6%
CCc1cc(=O)oc2cc(C)cc(OCC(=O)NC(Cc3ccc(Cl)cc3)C(=O)O)c12 (stereo not drawn),cell number change,,21%
CCCS(=O)(=O)c1c(S(=O)(=O)CCC)c2cnccn2c1C(=O)c1ccc(F)cc1,cell number change,,-36.6%
same,AC50,[1],"29.1 µM [falling, single point]"
O=c1c(-c2ccccc2)c(-c2ccccc2)oc2cc(O)cc(O)c12,cell number change,,-68.6%
same,AC50,[1],"9.2 µM [falling, partial curve]"
same,AC50,[2],"13 µM [falling, partial curve]"
CCN(CC)CCNC(=O)c1ccc(NC(=O)c2cn(-c3ccc(F)cc3)nc2-c2cccc(OC)c2)cc1,cell number change,,-3.63%
COCc1[nH]nc2c1C1(C(=O)N(C)c3ccccc31)C(C#N)=C(N)O2 (stereo not drawn),cell number change,,-11%
same,AC50,[2],"0.366 µM [falling, full curve]"
O=[N+]([O-])c1ccc(O)c(Nc2c([N+](=O)[O-])ccc3nonc23)c1,cell number change,,-25%
same,AC50,[2],"29.1 µM [falling, single point]"
CCC(=O)N1Cc2ccccc2-c2ccccc2C1=O,AC50,[2],"29.1 µM [rising, single point]"
CC(=O)Nc1ccc(NC(=O)CCCc2c[nH]c3ccccc23)cc1,cell number change,,-38.6%
same,AC50,[1],"9.2 µM [falling, partial curve]"
same,AC50,[2],"11.6 µM [falling, partial curve]"
Cc1cccn2c(=O)c3cc(C(=O)NCCN4CCOCC4)c(=N)n(CCc4ccccc4)c3nc12,cell number change,,-1.05%
same,AC50,[2],"0.146 µM [rising, partial curve, poor fit]"
O=c1c2[nH]c3ccccc3c2ncn1C1CCCCC1,cell number change,,-36%
same,AC50,[1],"23.1 µM [falling, single point]"
same,AC50,[2],"20.6 µM [falling, single point]"
O=S(=O)(c1ccccc1)c1cnn(-c2ccccc2)c1-c1ccc(F)cc1,cell number change,,1.12%
same,AC50,[1],"0.103 µM [falling, full curve, poor fit]"
same,AC50,[2],"0.366 µM [rising, full curve, poor fit]"
Cc1cc(C)n(CCCNC(=O)Cn2nnnc2CN2C[C@@H](C)O[C@@H](C)C2)n1,cell number change,,38.5%
same,AC50,[1],"1.16 µM [rising, partial curve, poor fit]"
same,AC50,[2],"23.1 µM [rising, single point]"
Cn1c(=O)oc2cc(S(=O)(=O)NCCC(=O)NCc3ccccc3Cl)ccc21,cell number change,,2.36%
same,AC50,[2],"29.1 µM [falling, single point]"
O=C(NNc1ccccc1Cl)C(O)(c1cccc(C(F)(F)F)c1)c1cccc(C(F)(F)F)c1,cell number change,,-72%
same,AC50,[1],"2.06 µM [falling, partial curve]"
same,AC50,[2],"1.84 µM [falling, partial curve]"
CCN(CC)CCN1C(=O)C(O)=C(C(C)=O)C1c1ccccc1 (stereo not drawn),cell number change,,-37.4%
same,AC50,[1],"0.146 µM [falling, full curve]"
same,AC50,[2],"0.82 µM [falling, full curve]"
Cc1ccc(O)c(C(=O)/C=C/c2ccc3c(c2)OCCCO3)c1,cell number change,,-33.1%
same,AC50,[1],"20.6 µM [falling, single point]"
same,AC50,[2],"29.1 µM [rising, single point]"
Cc1ccc(NC(=O)NCCN2CCCCC2)cc1,cell number change,,-16.3%
CCCc1[nH]n(-c2ccc([N+](=O)[O-])cc2)c(=O)c1C(C)=NCc1ccncc1,cell number change,,10.4%
same,AC50,[1],"2.91 µM [rising, single point]"

# Quoted from the entries so far for reference:
smiles,measurement,setting,value
O=C(NCc1ccccc1CN1CCCC1)c1ccc(Cl)c(S(=O)(=O)N2CCCC2)c1,cell number change,,-19.9%
COc1ccc(C2CC(c3ccc(Cl)cc3)n3nc(N)nc3N2)cc1 (stereo not drawn),cell number change,,9.11%
O=C(CSc1ncc(-c2ccccc2)[nH]1)Nc1ccccc1,cell number change,,7.37%
O=C(COC(=O)c1ccccc1Br)Nc1ccc(F)cc1,AC50,[1],"0.461 µM [rising, full curve]"
same,AC50,[2],"0.731 µM [rising, full curve]"
COc1ccc(S(=O)(=O)Nc2cc3[nH]c(=O)oc3cc2C)cc1,cell number change,,-4.6%
COc1ccc(OCCC(=O)N2CCN(C)CC2)cc1,cell number change,,9.33%
same,AC50,[2],"2.06 µM [rising, single point]"
O=[N+]([O-])c1ccccc1CNCCCCCO,cell number change,,22.3%
same,AC50,[2],"0.82 µM [rising, full curve, poor fit]"
CC(C)(C)c1ccc(C(=O)CCCSC2=C(C#N)C(c3ccco3)C3=C(CCCC3=O)N2)cc1 (stereo not drawn),cell number change,,-14.3%
same,AC50,[2],"0.164 µM [falling, partial curve, poor fit]"
O=C(NCCC1=CCCCC1)C1CCCN(S(=O)(=O)c2cccnc2)C1 (stereo not drawn),cell number change,,-9.09%
COCCCNC(=O)c1cn(Cc2c(F)cccc2Cl)nn1,cell number change,,-22.2%
same,AC50,[2],"0.184 µM [falling, full curve, poor fit]"
COc1ccc(-c2cc(C(F)F)n3ncc(C(=O)n4ccnc4C)c3n2)cc1,cell number change,,-32.5%
same,AC50,[1],"32.6 µM [falling, single point]"
Clc1ccc(OCc2nnc(-c3ccccc3Br)o2)cc1,cell number change,,0.0364%
same,AC50,[1],"7.31 µM [falling, partial curve]"
COc1ccc(C(=O)c2c(-c3ccc(OC)cc3)oc3ccccc23)cc1,cell number change,,-27.4%
same,AC50,[1],"0.82 µM [falling, full curve, poor fit]"
same,AC50,[2],"0.82 µM [falling, full curve, poor fit]"
O=C(N/N=C/c1ccc([N+](=O)[O-])cc1)c1cc(C2CC2)[nH]n1,cell number change,,34.6%
CC(=O)Nc1ccc(NC(=O)COC(=O)c2ccccc2C(=O)c2ccccc2)cc1,cell number change,,-15.8%
same,AC50,[2],"0.259 µM [rising, partial curve, poor fit]"
Nc1c(N(Cc2ccco2)C(=O)c2cccc(F)c2)c(=O)[nH]c(=O)n1Cc1ccccc1,cell number change,,-6.22%
same,AC50,[2],"3.26 µM [rising, full curve, poor fit]"
O=C(c1ccco1)N1CCCN(Cc2nc(-c3cccs3)no2)CC1,cell number change,,9.37%
same,AC50,[2],"1.3 µM [rising, full curve, poor fit]"
CCCCN(CC)C(=O)c1cccc(Cl)c1,cell number change,,7.47%
same,AC50,[2],"6.51 µM [falling, single point]"
CCOc1ccc2c(c1)C(=NNC(=O)c1ccncc1)c1cc(OCC)ccc1-2,cell number change,,-45.7%
same,AC50,[1],"18.4 µM [falling, partial curve]"
same,AC50,[2],"20.6 µM [falling, partial curve]"
COc1ccc(S(=O)(=O)CC(=O)Nc2ccccc2Cl)cc1,cell number change,,-12.6%
same,AC50,[2],"0.731 µM [falling, partial curve, poor fit]"
CCc1ccc(Nc2nnc(SCc3cc(=O)n4ccsc4n3)s2)cc1,cell number change,,66.2%

# — PubChem BioAssay AID2685 (National Center for Advancing Translational Sciences (NCATS), 2010)
